This series is described as follows: peptide synthesis. As to conditions: oxidative folding step, incorporation of B-chain.

For “H2(B33 A24)A pyro-Glu^1 B Lys^4 B Ala^25”, the oxidative folding yield was determined as 9.3%.
In the case of “H2(B2-33 A24)A pyro-Glu^1 B Lys^4 B Ala^25”, the oxidative folding yield turned out to be 18.9%.
Regarding H2(B2-33 A24) B Lys^4 B Ala^25, the oxidative folding yield amounted to 40.3%.
H2(B 33 A24) B Lys^4 B Ala^25 gave an oxidative folding yield of 20.3%.

Source of the values: US4835251A (Genetech, Inc., priority 1986, dated 1989).
